The source of these data is publication PMC10163288.

The other results are listed elsewhere or left out.

Sequences and labels used below:
B1: il10ra_site1_sap_14_mot_HHH_b2_05984_000000071_0001_38_52_H_._HHH_b1_04566_0001_0000400036_0000002_0_0001 (protein)
chain: SSSSSDEQELIELIMRVAHLLIRNDEEHLRELLKEALEIAEELGDERAVEMLEELLKLVGSSSSS
B2: il10ra_site1_sap_16_mot_HHH_b2_06857_af2_000000179_0001_42_54_H_._HHH_b1_05051_af2_0001_0000700017_0000001_0_0001 (protein)
chain: SSSSDEDERYLRLALRFLEWLIKQGDEESARRMIRAIEDLAERAKDEEVKELVEELREELESSSS
B3: il10ra_site1_sap_18_mot_eac4c1c76330803482ec69faa85739af_0001_000000225_0001_18_35_H_._626a6266371e825a8c4874df495abcf9_0001_1_0001_0000300013_0000001_0_0001 (protein)
chain: SSSSDEETERAIKLLREAIELLSDGDPEEAREVAEEAQEVAEEAGNPLVAWQIEFLLERISSSSS
B4: il10ra_site1_normal_mot_HHH_b2_08186_000000021_0001_43_56_H_._HHH_b1_08296_af2_0001_0000500011_0000001_0 (protein)
chain: SSSSSEEEEEIERLQEELRELAEKGDDERFLRVYQRILQLVYRLGDAELLRELWELLRKRQSSSS
B5: il10ra_site1_sap_16_mot_HHH_b1_02397_af2_000000085_0001_39_57_H_._HHH_b1_00346_af2_0001_0000100014_0000001_0_0001_af2pred_0001 (protein)
chain: SSSSSYEERIRELLEEAERAAEEGDERLVAELLAKALRLAYENNDPELAREVDKVAAELLGSSSS
B6: il10ra_site1_normal_mot_HHH_b1_02809_af2_000000277_0001_40_57_H_._HHH_b2_04730_af2_0001_0000100007_0000001_0_af2pred_0001 (protein)
chain: SSSSDEEEKQVRRLLRAAEFAEEQGDERAAKILLRLALLLARLLNNEELVEEVERLLEELSSSSS
B7: il10ra_site1_sap_20_mot_HHH_b1_07100_000000193_0001_1_18_H_._HHH_b2_05849_0001_0000400035_0000001_0_0001_af2pred_0001 (protein)
chain: SSSSSERLELTIKFIEFLLEQGDPEAAKRLARAAAQIAKKDGDEELLRRIEELLEEAEELLSSSS
B8: il10ra_site1_normal_mot_HHH_b1_05357_000000034_0001_23_39_H_._HHH_b2_01639_0001_0000100002_0000001_0_af2pred_0001 (protein)
chain: SSSSSSDSEEEVEELLEEAKQIEDRQELAYVLIRAFAIANQANDPELKELVEKVAIKLSSSSSSS
B9: il10ra_site1_normal_mot_HHH_b1_06256_000000091_0001_42_58_H_._HHH_b2_07403_0001_0000100008_0000001_0_af2pred_0001 (protein)
chain: SSSSTEERVARLLFEALELLANGNPEEAEELVEEAKRLAEELNDPELERAVEILERFVKLLSSSS
B10: il10ra_site1_sap_18_mot_HHH_b2_01760_000000115_0001_41_54_H_._HHH_b2_03943_0001_0000300040_0000001_0_0001 (protein)
chain: SSSSSDEEVQEEVEELLEEAKHIEDERELSRVLQEATHLALRLGDAELLRLVWRVVKELGSSSSS
B11: il10ra_site1_sap_13_mot_cb37e3bbdb9b21896581229d2f79fce4_0001_1_af2_000000054_0001_15_28_H_._0c3bf8cb9d93094680b22e24baf1e485_0001_af2_0001_0000300022_0000001_0 … (protein)
chain: SSSSDDERREVYELVRRVIELHHEGNPEEAREVLREAKELAEEIGSDVLRMVIEYLEKQLSSSSS
B12: il10ra_site1_normal_mot_HHH_b1_06348_000000162_0001_1_15_H_._HHH_b1_01821_0001_0000100007_0000001_0 (protein)
chain: SSSSDEEDHELYRLSRKIAELLAQGDREEARELLEEAERLAEEANNELIRFALEILERAINSSSS
B13: il10ra_site1_normal_mot_HHH_b2_00277_af2_000000172_0001_1_17_H_._HHH_b2_02426_0001_0000100002_0000001_0_af2pred_0001 (protein)
chain: SSSSSSDEEEVQELLEEARKIEDREEVAYLLIRAFALATERRDPELEELVRRVAKEIISSSSSSS
B14: il10ra_site1_sap_15_mot_HHH_b2_00800_af2_000000047_0001_1_20_H_._HHH_b1_06628_af2_0001_0000100001_0000001_0_0001 (protein)
chain: DIVELIEEALEEGDPDLLYRLLKELAEEAAEKNDPRLLRVVTLLSRAVLARDPELLKEAEERLKE
B15: il10ra_site1_sap_20_mot_HHH_b1_05021_af2_000000167_0001_42_56_H_._HHH_b1_06778_0001_0000100002_0000001_0_0001 (protein)
chain: SSSDEAFELLREAFEELKELAEEGDEEEFRRLTERVKEELEELGNRLAAWVLENAAKLLLRSSSS
B16: il10ra_site1_normal_mot_HHH_b2_08186_000000021_0001_43_56_H_._HHH_b2_01518_af2_0001_0000300023_0000001_0 (protein)
chain: SSSSSDEEEERVEELLEEAREIEDREKVRRILMEALQIAQELSNPELLKLVWEVLKELAGSSSSS
B17: il10ra_site1_sap_24_mot_HHH_b1_07380_000000129_0001_1_20_H_._HHH_b1_06010_af2_0001_0000100008_0000001_0_0001_af2pred_0001 (protein)
chain: SSSSDDQKKIELTLRFARWLLEQGDEEAVRFFLEAARQLAERAGDPELQRLVEEFEEELKSSSSS
B18: il10ra_site1_sap_14_mot_HHH_b2_01447_af2_000000258_0001_1_20_H_._HHH_b2_01069_0001_0000400054_0000001_0_0001 (protein)
chain: SSSSSSTEAEEIWRLIREALHIDDPEEARELLEQAQELAEELNSRVLAIQVRFLLRSRSSSSSSS

This experiment concerns the target il10ra, Q13651. Briefly: yeast display titration.
With B1, the “apparent Kd” value is “inactive: no binding seen”.

Take B2: the “apparent Kd” value was “inactive: no binding seen”.

In the case of B3, the “apparent Kd” value was “inactive: no binding seen”.

B4: the “apparent Kd” value was “inactive: no binding seen”.

In the case of B5, the “apparent Kd” value was “inactive: no binding seen”.

As to B6, the “apparent Kd” value was “inactive: no binding seen”.

On to B7, for which the “apparent Kd” value was “inactive: no binding seen”.

B8: the “apparent Kd” value was “inactive: no binding seen”.

Turning to B9, the “apparent Kd” value is “inactive: no binding seen”.

As to B10, the “apparent Kd” value was “inactive: no binding seen”.

Regarding B11, the “apparent Kd” value was “inactive: no binding seen”.

Consider B12, for which the “apparent Kd” value was “inactive: no binding seen”.

In the case of B13, the “apparent Kd” value was “inactive: no binding seen”.

With B14, the “apparent Kd” value is “inactive: no binding seen”.

As for B15, the “apparent Kd” value is “inactive: no binding seen”.

As for B16, the “apparent Kd” value was “inactive: no binding seen”.

In the case of B17, the “apparent Kd” value is “inactive: no binding seen”.

For the molecule B18, the “apparent Kd” value was “inactive: no binding seen”.
